# From the supplement of paper PMC9135407
# Several values for one entry are separate records, joined by “and”; a condition that tells them apart may be missing. Identical values can stand only once. Counter-ions that a name gives are not always drawn. ± gives the standard deviation of the averaged measurements. This is one part of the list. Plates or batches differ in their baseline, so values are only roughly comparable.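 Primary human stellate myofibroblasts activated in culture; inactivation shown by regained lipid droplets. Readout: fraction of Hoechst-counted cells exceeding a per-plate Bodipy threshold, duplicate wells, each plate with DMSO negative and nortriptyline positive controls. Hits: control-normalized score beyond the plate's top-tenth-percentile nortriptyline wells, or among its three best wells. Final well concentrations unstated.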
# Tested on: primary human hepatic stellate cells (donor 1)
# Experiment: percent Bodipy-positive cells; higher = more lipid droplet accumulation
# Settings: 48 h
# Procedure: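 Primary lipid accumulation screen in primary human hepatic stellate cell myofibroblasts (donor 1, passage 8) in 384-well plates. 100 nL of library compound was pin-transferred into 30 µL medium in duplicate, and cells were treated for 48 h. The 'Scaled' score combines distance from plate baseline, toxicity and reproducibility penalties, and is normalised to nortriptyline (positive) and DMSO (negative) controls on each plate. A hit is defined as scaled >0.85 or among the top 3 wells per plate.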
# [1] = library stock concentration: 10 mM
# [2] = library stock concentration: 1 mM
# [3] = library stock concentration: 3.33 mM
# [4] = library stock concentration: 80 uM
# [5] = library stock concentration: 400 uM
smiles,measurement,setting,value
COc1ccc2cc([C@H](C)C(=O)O)ccc2c1 [(-)-Naproxen sodium],percent Bodipy-positive cells,[1],44.1 ± 12%
COc1ccc2cc([C@H](C)C(=O)O)ccc2c1,percent Bodipy-positive cells,[1],8.61 ± 2%
COc1ccc2cc([C@H](C)C(=O)O)ccc2c1 [(S)-Naproxen],percent Bodipy-positive cells,[2],6.95 ± 2.1%
CC(C)CN1CCC(CNCc2ccc(C#CC(C)(C)O)s2)CC1,percent Bodipy-positive cells,[1],76.1 ± 8.1%
C[C@]12CCC(=O)C=C1[C@@H]1C[C@@H]1[C@H]1[C@@H]3[C@@H]4C[C@@H]4[C@@]4(CCC(=O)O4)[C@@]3(C)CC[C@@H]12,percent Bodipy-positive cells,[1],53.8 ± 17%
C[C@]12CCC(=O)C=C1[C@@H]1C[C@@H]1[C@H]1[C@@H]3[C@@H]4C[C@@H]4[C@@]4(CCC(=O)O4)[C@@]3(C)CC[C@@H]12 [Drospirenone],percent Bodipy-positive cells,[3],11.2 ± 2.9%
same,percent Bodipy-positive cells,[1],22.8 ± 1.4%
OCCn1cc(-c2cnc3nnn(Cc4ccc5ncccc5c4)c3n2)cn1,percent Bodipy-positive cells,[4],8.95 ± 1.6%
same,percent Bodipy-positive cells,[5],17% and 27.8%
same,percent Bodipy-positive cells,library stock concentration: 2 mM,9.47% and 19.7%
same,percent Bodipy-positive cells,[3],6.34 ± 3.4%
CC1=C(/C=C/C(C)=C/C=C/C(C)=C/CO)C(C)(C)CCC1 [Retinol],percent Bodipy-positive cells,library stock concentration: 7 mM,19.4 ± 5%
same,percent Bodipy-positive cells,[1],23.2 ± 3.5%
O=C(O)c1ccccc1OP(=O)(O)O [Fosfosal],percent Bodipy-positive cells,,7.44 ± 2.1%
same,percent Bodipy-positive cells,[1],19.4 ± 2.6%
C/C=C(/C(=C/C)c1ccc(O)cc1)c1ccc(O)cc1 [Dienestrol],percent Bodipy-positive cells,,20 ± 6.6%
same,percent Bodipy-positive cells,library stock concentration: 7.5 mM,14 ± 0.22%
same,percent Bodipy-positive cells,[1],10.1 ± 3.1%
CCOc1cc2ncc(C#N)c(Nc3ccc(F)c(Cl)c3)c2cc1NC(=O)C=CCN(C)C [Pelitinib (EKB-569)],percent Bodipy-positive cells,[3],97.4 ± 2.8%
Nc1nc2[nH]c(=O)[nH]c2c(=O)[nH]1 [8-hydroxy Guanine (hydrochloride)],percent Bodipy-positive cells,[2],8.63 ± 0.42%
Cc1ncc([N+](=O)[O-])n1CC(C)O (centres undefined) [Secnidazole],percent Bodipy-positive cells,[3],6.63 ± 0.6%
Cc1ncc([N+](=O)[O-])n1CC(C)O (centres undefined) [1-(2-Methyl-5-nitro-imidazol-1-yl)-propan-2-ol],percent Bodipy-positive cells,[1],12.5 ± 4.2%
CCCCn1c(=O)c2[nH]c(C34CC5CC(CC3C5)C4)nc2n(CCCO)c1=O,percent Bodipy-positive cells,[1],7.15 ± 3.5%
CC(C)C[C@H](NC(=O)N1CCCCCC1)C(=O)N[C@H](Cc1cn(C)c2ccccc12)C(=O)N[C@H](Cc1ccccn1)C(=O)O,percent Bodipy-positive cells,[1],9.2 ± 3.4%
O=C1C(SCCO)=C(SCCO)C(=O)c2ccccc21,percent Bodipy-positive cells,library stock concentration: 16.1 mM,100%
O=C(O)c1ccc2cc(-c3ccc(O)c(C45CC6CC(CC(C6)C4)C5)c3)ccc2c1,percent Bodipy-positive cells,[1],11.7 ± 5.7%
CCC(NC(C)C)C(O)c1ccc(O)c2[nH]c(=O)ccc12 (centres undefined) [Procaterol hcl],percent Bodipy-positive cells,library stock concentration: 6.9 mM,11.3 ± 3.8%
CCC(NC(C)C)C(O)c1ccc(O)c2[nH]c(=O)ccc12 (centres undefined) [Procaterol hydrochloride],percent Bodipy-positive cells,library stock concentration: 6.1 mM,2.27 ± 1.1%
same,percent Bodipy-positive cells,[1],11.6 ± 4.9%
Cc1ccc(C(=O)Nc2ccc(CN3CCN(C)CC3)c(C(F)(F)F)c2)cc1C#Cc1cnc2[nH]ncc2c1,percent Bodipy-positive cells,[3],99.63 ± 0.53%
same,percent Bodipy-positive cells,[1],100%
O=C(Nc1ccc(S(=O)(=O)Nc2ccccc2Cl)c(Cl)c1)c1ccccn1,percent Bodipy-positive cells,[3],42.5 ± 11%
same,percent Bodipy-positive cells,[1],47.4 ± 7.9%
Oc1ccc(-c2nc(-c3ccc(F)cc3)c(-c3ccncc3)[nH]2)cc1,percent Bodipy-positive cells,[4],13.5 ± 7.2%
same,percent Bodipy-positive cells,[5],16.8% and 31.1%
same,percent Bodipy-positive cells,[3],10.1% and 11.1%
same,percent Bodipy-positive cells,library stock concentration: 15.1 mM,34.5 ± 2.1%
O=c1n(CCCN2CCN(c3cccc(Cl)c3)CC2)nc2ccccn12,percent Bodipy-positive cells,[1],8.69 ± 2%
O=c1n(CCCN2CCN(c3cccc(Cl)c3)CC2)nc2ccccn12 [Trazodone hydrochloride],percent Bodipy-positive cells,,31.84 ± 0.11%
same,percent Bodipy-positive cells,library stock concentration: 4.9 mM,32.8 ± 7.6%
same,percent Bodipy-positive cells,[1],39.5% and 47.2%
CC(=O)NCCCCCC(=O)O [Acexamic acid],percent Bodipy-positive cells,[1],23 ± 2.1%
O=C(O)c1cc(=O)[nH]c(=O)[nH]1 [Orotic acid (6-Carboxyuracil)],percent Bodipy-positive cells,[3],7.46 ± 2.1%
same,percent Bodipy-positive cells,[1],19.9 ± 2.2%
O=C(O)c1cc(=O)[nH]c(=O)[nH]1,percent Bodipy-positive cells,[1],26.4 ± 2.1%
Cl.N#Cc1ccc2[nH]cc(CCCCN3CCN(c4ccc5oc(C(N)=O)cc5c4)CC3)c2c1 [Vilazodone HCl],percent Bodipy-positive cells,[1],98.73 ± 0.21%
"CCCCCC(=O)/C=C/C=C\CCCCCCCC(=O)O [13-Keto-octadeca-9Z,11E-dienoic acid]",percent Bodipy-positive cells,library stock concentration: 100 uM,6.22 ± 3.9%
Cc1ccccc1C(C(=O)NC1CCCCC1)N(C(=O)Cn1ccnc1C)c1cccc(F)c1 (centres undefined),percent Bodipy-positive cells,[3],34.6 ± 10%
same,percent Bodipy-positive cells,[1],47 ± 7.7%
CN(C)C(=O)n1nnnc1Cc1ccc(-c2ccccc2)cc1,percent Bodipy-positive cells,[1],42.1 ± 0.68%
CCOc1cc(C(=O)Nc2ccc(Cl)c(-c3nc4ccccc4[nH]3)c2)cc(OCC)c1OCC,percent Bodipy-positive cells,[1],36.5 ± 6.5%
CC1(C)S[C@@H]2[C@H](NC(=O)[C@H](N)c3ccccc3)C(=O)N2[C@H]1C(=O)O [Ampicillin Trihydrate],percent Bodipy-positive cells,[3],9.87 ± 3.1%
same,percent Bodipy-positive cells,[1],35.9 ± 18%
CC1(C)S[C@@H]2[C@H](NC(=O)[C@H](N)c3ccccc3)C(=O)N2[C@H]1C(=O)O [Ampicillin Sodium],percent Bodipy-positive cells,[1],26.1 ± 3.7%
CC1(C)S[C@@H]2[C@H](NC(=O)[C@H](N)c3ccccc3)C(=O)N2[C@H]1C(=O)O [Ampicillin trihydrate],percent Bodipy-positive cells,,18.66 ± 0.099%
same,percent Bodipy-positive cells,library stock concentration: 5.7 mM,12.3 ± 0.88%
CC1(C)S[C@@H]2[C@H](NC(=O)[C@H](N)c3ccccc3)C(=O)N2[C@H]1C(=O)O [Ampicillin sodium],percent Bodipy-positive cells,[3],16.3 ± 2.3%
same,percent Bodipy-positive cells,library stock concentration: 5.4 mM,3.42 ± 0.55%
same,percent Bodipy-positive cells,[1],32.7% and 14%
